The other results are listed elsewhere or left out.

Chains of the proteins cited; added tags and fusions are not shown. Lines headed by an entry give the natural chain unless they say otherwise; changes in a name come on top.
UniProt Q9NT62, whole entry, looked up: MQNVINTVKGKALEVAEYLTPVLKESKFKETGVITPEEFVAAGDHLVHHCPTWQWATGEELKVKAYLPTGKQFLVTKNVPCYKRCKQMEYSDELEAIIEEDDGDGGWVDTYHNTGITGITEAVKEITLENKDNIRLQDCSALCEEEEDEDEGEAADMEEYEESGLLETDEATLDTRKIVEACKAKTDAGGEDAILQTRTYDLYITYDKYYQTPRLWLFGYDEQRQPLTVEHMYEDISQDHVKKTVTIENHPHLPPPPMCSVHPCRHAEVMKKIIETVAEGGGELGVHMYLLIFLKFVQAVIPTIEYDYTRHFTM
UniProt P16615: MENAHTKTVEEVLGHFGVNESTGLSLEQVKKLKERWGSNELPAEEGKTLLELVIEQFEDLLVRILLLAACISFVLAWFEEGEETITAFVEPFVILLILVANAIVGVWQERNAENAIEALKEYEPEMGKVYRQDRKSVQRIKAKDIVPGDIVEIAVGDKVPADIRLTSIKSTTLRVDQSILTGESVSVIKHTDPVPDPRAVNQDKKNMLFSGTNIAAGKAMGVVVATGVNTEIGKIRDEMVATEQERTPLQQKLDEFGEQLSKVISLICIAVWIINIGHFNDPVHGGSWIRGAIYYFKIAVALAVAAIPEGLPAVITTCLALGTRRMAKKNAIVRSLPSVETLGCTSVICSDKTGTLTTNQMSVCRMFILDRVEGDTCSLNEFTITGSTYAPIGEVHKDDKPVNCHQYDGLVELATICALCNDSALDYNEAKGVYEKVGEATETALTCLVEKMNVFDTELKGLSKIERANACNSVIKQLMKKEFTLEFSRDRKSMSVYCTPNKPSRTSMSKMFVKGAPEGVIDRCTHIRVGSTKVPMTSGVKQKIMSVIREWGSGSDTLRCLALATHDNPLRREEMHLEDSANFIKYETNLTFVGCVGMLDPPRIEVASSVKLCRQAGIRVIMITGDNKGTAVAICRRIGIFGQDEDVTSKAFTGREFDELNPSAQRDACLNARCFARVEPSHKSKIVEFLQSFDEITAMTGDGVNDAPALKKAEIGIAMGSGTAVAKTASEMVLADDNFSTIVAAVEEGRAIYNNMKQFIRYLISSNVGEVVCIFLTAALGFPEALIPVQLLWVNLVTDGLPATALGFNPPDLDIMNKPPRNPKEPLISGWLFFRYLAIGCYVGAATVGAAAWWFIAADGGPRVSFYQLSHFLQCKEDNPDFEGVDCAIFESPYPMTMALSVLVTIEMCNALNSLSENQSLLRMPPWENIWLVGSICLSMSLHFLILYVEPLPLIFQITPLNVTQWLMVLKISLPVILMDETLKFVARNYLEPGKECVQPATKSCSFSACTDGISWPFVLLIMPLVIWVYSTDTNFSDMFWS
UniProt P48047: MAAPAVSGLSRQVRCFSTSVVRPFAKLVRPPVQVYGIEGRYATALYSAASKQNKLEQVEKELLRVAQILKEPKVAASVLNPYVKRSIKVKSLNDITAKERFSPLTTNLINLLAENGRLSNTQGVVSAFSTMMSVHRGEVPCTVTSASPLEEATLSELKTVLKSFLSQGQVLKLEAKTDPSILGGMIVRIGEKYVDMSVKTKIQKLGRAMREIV
UniProt Q92747, whole entry, looked up: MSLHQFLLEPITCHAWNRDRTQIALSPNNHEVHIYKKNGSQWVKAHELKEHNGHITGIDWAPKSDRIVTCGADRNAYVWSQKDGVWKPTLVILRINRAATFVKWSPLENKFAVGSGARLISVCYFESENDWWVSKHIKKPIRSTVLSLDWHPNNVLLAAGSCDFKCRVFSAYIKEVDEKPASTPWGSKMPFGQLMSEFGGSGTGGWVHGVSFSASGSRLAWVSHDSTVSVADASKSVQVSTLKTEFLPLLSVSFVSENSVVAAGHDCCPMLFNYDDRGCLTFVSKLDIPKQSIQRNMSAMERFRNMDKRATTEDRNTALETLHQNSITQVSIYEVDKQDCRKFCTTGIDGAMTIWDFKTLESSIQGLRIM
UniProt Q9Y2G3: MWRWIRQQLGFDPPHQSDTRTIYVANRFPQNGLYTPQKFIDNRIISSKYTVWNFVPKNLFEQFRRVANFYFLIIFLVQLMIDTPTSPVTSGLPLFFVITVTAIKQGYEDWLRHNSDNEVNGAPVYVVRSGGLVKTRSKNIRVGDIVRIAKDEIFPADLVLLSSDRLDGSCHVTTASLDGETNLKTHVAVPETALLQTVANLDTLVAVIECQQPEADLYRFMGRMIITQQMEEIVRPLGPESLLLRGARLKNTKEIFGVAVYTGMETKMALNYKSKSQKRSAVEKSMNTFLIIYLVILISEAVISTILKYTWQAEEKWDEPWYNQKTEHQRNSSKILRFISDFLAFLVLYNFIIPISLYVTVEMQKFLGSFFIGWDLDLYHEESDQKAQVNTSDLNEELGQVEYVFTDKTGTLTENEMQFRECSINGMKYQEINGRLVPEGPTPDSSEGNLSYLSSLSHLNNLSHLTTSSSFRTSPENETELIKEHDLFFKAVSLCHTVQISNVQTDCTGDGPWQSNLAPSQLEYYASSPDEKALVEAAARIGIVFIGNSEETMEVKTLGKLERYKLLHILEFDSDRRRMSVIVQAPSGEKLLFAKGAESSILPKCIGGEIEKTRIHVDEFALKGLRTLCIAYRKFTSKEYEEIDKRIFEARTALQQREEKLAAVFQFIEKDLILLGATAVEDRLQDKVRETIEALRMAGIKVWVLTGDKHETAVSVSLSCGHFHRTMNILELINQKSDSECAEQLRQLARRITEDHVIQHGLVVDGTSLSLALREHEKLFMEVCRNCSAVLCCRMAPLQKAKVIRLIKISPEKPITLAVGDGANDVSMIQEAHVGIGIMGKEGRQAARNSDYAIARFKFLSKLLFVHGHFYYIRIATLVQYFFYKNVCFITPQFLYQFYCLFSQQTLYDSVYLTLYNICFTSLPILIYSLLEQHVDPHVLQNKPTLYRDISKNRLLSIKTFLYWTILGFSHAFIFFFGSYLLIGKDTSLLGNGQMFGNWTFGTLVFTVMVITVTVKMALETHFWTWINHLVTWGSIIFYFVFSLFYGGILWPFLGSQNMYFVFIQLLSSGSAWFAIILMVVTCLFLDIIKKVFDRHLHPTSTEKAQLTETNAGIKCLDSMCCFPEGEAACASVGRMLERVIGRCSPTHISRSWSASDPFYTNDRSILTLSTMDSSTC
UniProt O75787, whole entry, looked up: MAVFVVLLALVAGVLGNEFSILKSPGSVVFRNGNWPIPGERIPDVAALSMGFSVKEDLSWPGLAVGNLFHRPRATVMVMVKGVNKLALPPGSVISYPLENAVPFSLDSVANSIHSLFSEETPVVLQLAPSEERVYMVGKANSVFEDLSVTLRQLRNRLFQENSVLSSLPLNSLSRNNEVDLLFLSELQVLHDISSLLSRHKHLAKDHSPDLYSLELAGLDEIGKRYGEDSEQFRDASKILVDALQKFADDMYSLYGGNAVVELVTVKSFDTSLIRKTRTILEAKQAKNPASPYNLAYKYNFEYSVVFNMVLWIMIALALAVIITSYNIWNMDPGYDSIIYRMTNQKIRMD
UniProt P18859: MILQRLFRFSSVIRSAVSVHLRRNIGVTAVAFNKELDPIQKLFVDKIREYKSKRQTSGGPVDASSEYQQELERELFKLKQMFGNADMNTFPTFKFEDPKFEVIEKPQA
UniProt O95260: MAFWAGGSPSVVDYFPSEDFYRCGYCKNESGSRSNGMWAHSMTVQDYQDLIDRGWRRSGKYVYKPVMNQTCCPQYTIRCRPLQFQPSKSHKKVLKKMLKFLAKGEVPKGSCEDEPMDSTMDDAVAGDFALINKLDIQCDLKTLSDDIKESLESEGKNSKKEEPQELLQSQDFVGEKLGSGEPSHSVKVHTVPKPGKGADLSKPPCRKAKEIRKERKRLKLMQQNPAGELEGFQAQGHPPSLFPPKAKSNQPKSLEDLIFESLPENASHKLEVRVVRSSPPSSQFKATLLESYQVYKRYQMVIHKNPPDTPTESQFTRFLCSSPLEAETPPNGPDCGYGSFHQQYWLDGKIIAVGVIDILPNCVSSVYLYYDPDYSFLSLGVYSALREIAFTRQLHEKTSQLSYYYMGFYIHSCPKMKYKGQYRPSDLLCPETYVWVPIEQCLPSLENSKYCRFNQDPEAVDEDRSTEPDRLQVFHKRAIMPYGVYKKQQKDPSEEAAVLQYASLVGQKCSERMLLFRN
UniProt Q9ULH1: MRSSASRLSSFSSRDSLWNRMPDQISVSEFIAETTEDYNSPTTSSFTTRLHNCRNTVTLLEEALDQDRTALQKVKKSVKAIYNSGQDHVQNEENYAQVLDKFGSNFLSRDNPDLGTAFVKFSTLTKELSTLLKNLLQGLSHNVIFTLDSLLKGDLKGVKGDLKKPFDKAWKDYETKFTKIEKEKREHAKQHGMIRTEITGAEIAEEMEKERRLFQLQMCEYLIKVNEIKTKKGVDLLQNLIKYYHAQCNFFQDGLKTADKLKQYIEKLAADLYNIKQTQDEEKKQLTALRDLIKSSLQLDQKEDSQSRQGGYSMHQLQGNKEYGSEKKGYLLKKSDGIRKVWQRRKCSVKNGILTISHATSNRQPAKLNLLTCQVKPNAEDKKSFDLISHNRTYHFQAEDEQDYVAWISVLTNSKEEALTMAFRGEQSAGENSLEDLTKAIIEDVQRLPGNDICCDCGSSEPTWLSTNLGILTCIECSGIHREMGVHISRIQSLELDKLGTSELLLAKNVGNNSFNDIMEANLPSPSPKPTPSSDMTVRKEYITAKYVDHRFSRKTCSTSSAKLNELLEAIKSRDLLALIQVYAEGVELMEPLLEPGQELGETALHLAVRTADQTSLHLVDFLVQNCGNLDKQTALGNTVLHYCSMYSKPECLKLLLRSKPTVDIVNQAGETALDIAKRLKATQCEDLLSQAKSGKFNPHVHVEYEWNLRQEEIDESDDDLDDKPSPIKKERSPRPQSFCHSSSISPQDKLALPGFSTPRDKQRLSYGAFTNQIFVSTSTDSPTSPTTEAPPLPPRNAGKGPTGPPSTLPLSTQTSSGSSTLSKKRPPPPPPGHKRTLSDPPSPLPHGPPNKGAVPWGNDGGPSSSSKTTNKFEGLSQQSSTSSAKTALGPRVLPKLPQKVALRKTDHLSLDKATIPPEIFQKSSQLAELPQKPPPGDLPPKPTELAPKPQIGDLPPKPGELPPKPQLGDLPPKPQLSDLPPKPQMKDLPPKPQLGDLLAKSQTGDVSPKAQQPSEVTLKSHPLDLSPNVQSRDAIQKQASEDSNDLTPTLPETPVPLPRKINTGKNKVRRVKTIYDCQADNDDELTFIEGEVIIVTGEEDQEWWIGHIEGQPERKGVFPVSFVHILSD
UniProt L0R819, whole entry, looked up: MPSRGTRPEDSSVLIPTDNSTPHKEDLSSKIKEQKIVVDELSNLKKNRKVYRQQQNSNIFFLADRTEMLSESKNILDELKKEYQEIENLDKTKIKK
UniProt P21281, whole entry, looked up: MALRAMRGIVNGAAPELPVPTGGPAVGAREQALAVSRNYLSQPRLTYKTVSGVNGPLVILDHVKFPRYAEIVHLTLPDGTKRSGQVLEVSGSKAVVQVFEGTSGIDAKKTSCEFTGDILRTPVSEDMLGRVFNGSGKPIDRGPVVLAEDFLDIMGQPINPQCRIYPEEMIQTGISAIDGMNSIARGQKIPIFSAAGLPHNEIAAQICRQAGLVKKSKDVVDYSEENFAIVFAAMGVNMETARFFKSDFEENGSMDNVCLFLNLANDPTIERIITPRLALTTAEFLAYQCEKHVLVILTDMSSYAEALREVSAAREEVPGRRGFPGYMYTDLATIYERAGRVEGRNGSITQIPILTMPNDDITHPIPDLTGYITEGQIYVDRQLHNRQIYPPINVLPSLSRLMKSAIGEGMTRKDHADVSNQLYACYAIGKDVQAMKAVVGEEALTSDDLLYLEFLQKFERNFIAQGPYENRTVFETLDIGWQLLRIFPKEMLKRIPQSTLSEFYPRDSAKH
UniProt Q7L266: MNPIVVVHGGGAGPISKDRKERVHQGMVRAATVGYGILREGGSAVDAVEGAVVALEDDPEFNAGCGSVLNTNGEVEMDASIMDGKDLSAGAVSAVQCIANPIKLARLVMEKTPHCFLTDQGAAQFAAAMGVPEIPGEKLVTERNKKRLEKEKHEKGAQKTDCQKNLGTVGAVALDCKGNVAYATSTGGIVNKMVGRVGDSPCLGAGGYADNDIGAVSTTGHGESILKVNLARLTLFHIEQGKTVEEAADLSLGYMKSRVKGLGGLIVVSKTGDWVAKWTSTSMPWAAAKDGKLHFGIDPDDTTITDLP
UniProt P32121, whole entry, looked up: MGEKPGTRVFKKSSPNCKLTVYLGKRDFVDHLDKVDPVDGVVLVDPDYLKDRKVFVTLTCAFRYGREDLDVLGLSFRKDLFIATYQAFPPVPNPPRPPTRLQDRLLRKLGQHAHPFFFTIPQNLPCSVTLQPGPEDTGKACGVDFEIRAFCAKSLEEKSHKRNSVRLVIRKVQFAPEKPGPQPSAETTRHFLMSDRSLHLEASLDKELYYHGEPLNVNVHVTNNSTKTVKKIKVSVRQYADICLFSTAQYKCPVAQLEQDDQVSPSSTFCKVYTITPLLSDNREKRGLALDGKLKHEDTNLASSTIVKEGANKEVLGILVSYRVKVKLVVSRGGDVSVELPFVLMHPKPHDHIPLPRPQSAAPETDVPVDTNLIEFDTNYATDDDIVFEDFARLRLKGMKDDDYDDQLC

Compound in this test: c1cn2cc(-c3ccc4cn[nH]c4c3)nc(Nc3ccc(N4CCOCC4)cc3)c2n1 [entospletinib]
Put plainly: log2 fold change, soluble protein after heating vs DMSO (PISA); higher = thermal stabilisation; K562 cells, 10 uM, 30 min; active = over 0.2 and 3.5 SD of the protein, either way, in both replicates (recomputed). In a few lines: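 Soluble protein was defined as the supernatant after 21,000xg for 90 min. It came from K562 cells at 2×10^6 cells/mL given 10 μM compound for 30 min, heated in aliquots for 3 min across 48°C-58°C, pooled, and extracted in PBS with 0.5% NP-40 at 4°C, and was quantified by TMTpro 16plex LC-MS/MS with equalised channel sums. Thermal stability against control samples, from duplicates, is reported as log2 fold change.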
Take ATG3 (UniProt Q9NT62): the log2 fold change is inactive: 0.
Under ARMT1 (UniProt Q9H993) stands inactive: 0.056; under ATP2A2 (UniProt P16615), inactive: -0.027; under ASCC1 isoform 2 (UniProt Q8N9N2), inactive: -0.049.
Consider ATP5F1B (UniProt P06576), for which the log2 fold change is inactive: 0.028.
For ATP5PO (UniProt P48047), the log2 fold change is inactive: 0.076.
For ARPC1A (UniProt Q92747), the log2 fold change is inactive: -0.104.
Under ARNT (UniProt P27540) stands inactive: -0.202; under ATP11B (UniProt Q9Y2G3), inactive: 0.019; under ATP6AP2 (UniProt O75787), inactive: -0.008.
In the case of ASL (UniProt P04424), the log2 fold change was inactive: 0.023.
ATP1B1 (UniProt P05026): the log2 fold change was inactive: 0.032.
With ATG5 (UniProt Q9H1Y0), the log2 fold change is inactive: 0.005.
As for ATP5F1C (UniProt P36542), the log2 fold change is inactive: 0.008.
Consider ATP5PF isoform 2 (UniProt P18859), for which the log2 fold change was inactive: 0.104.
With ATE1 (UniProt O95260), the log2 fold change was inactive: -0.085.
Turning to ATP2B1 isoform 1 (UniProt P20020), the log2 fold change was inactive: -0.013.
In the case of ATP5F1B (UniProt H0YI37), the log2 fold change was inactive: 0.107.
Turning to ATP5MD (UniProt Q96IX5), the log2 fold change was inactive: 0.228.
In the case of ARRB1 (UniProt P49407), the log2 fold change was inactive: -0.019.
Regarding ASAP1 isoform 2 (UniProt Q9ULH1), the log2 fold change is inactive: 0.031.
Take ASDURF (UniProt L0R819): the log2 fold change is inactive: 0.027.
Under ARIH2 (UniProt O95376) stands inactive: -0.018; under ATL3 (UniProt Q6DD88), inactive: -0.066.
As for ATP6V1B2 (UniProt P21281), the log2 fold change was inactive: 0.006.
The value for ARPC2 (UniProt O15144) was inactive: -0.021.
In the case of ATP2B4 (UniProt P23634), the log2 fold change was inactive: 0.019.
ARPC1B (UniProt O15143): the log2 fold change is inactive: -0.038.
ASRGL1 (UniProt Q7L266): the log2 fold change was inactive: -0.012.
As for ARRB2 isoform 4 (UniProt P32121), the log2 fold change is inactive: -0.083.
As to ATG14 (UniProt Q6ZNE5), the log2 fold change is inactive: -0.082.
For ARPC4 isoform 3 (UniProt P59998), the log2 fold change is inactive: -0.028.

The record behind these values is the supplement of paper PMC10849652.
